Source: patent US20020099180A1
No constants are given. Whether binding was seen depends on the method and setting. Some binding calls cover weakened binding; strength is not graded here.

By UniProt entry, the sequences of proteins in these tests, tags left out. Residues count along the entry.
UniProt Q12884, residues 27-760: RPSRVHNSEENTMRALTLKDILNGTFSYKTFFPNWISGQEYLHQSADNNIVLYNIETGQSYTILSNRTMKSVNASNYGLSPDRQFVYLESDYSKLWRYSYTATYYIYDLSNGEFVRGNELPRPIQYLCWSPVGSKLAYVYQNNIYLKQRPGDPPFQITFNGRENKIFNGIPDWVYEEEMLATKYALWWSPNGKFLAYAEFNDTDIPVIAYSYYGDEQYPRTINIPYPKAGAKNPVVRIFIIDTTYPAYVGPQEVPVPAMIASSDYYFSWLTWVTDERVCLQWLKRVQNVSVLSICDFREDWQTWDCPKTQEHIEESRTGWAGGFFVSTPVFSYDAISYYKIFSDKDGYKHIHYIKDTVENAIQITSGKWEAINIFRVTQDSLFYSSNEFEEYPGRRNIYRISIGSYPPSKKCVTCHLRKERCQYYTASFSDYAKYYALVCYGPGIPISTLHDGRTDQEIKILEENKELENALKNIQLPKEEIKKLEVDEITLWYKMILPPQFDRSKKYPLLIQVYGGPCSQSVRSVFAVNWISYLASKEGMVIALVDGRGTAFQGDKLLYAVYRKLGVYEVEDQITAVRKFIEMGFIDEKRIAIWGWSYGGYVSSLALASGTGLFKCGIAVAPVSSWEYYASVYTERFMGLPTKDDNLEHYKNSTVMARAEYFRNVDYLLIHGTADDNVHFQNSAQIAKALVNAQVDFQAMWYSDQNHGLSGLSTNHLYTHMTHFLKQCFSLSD

Target: fibroblast activating protein alpha (FAPα), purified and immobilised (ELISA wells) (human) (UniProt Q12884)
Experiment: ELISA

| Binder | binding |
| --- | --- |
| scFv #13 (VH #13, IgG; VL III25) (scFv, not shown: large carriers) scFv: QVQLVESGGTLVQPGGSLRLSCAASGFTFSSYAMSWIRQAPGKGLEWVSGISASGGYIDYADSVKGRVTISRDNSKNMAYLQMSSLRAEDTALYYCAKGGNYQMLLDHWGQGTLVTVSSASTKGPKLEEGEFSEARVDIQMTQSPSSLSASTGDRVTITCRASQDISSYLAWYQQAPGKAPHLLMSGATTLQTGVPSRFSGSGSGTDFTLTITSLQSEDFATYYCQQYYIYPPTFGQGTRVEIKRTVAAPSVFAA | binds |
| scFv #46 (VH #46, IgG; VL III25) (scFv, not shown: large carriers) scFv: QVQLVQSGAEVKKDGASVKVSCKATGGTFSGHAISWVRQAPGQRLEWMGEISPMFGTPNYAQSFQGRVTITADESTSYMEVSSLRSEDTATYYCARGANYRALLDYWGQGTLVTVSSASTKGPKLEEGEFSEARVDIQMTQSPSSLSASTGDRVTITCRASQDISSYLAWYQQAPGKAPHLLMSGATTLQTGVPSRFSGSGSGTDFTLTITSLQSEDFATYYCQQYYIYPPTFGQGTRVEIKRTVAAPSVFAA | binds |
| scFv #50 (VH #50, IgD; VL III25) (scFv, not shown: large carriers) scFv: QVQLVESGGGLVQPGGSLRLSCAASGFTFSNYWMSWVRQAPGKGLEWVANIKQDGSEKYYVDSVKGRFTISRDNAKNSLYLQMNSLRAEDTAVYYCARGSLCTDGSCPTIGPGPNWGQGTLVTVSSAPTKAPKLEEGEFSEARVDIQMTQSPSSLSASTGDRVTITCRASQDISSYLAWYQQAPGKAPHLLMSGATTLQTGVPSRFSGSGSGTDFTLTITSLQSEDFATYYCQQYYIYPPTFGQGTRVEIKRTVAAPSVFAA | binds |
